Results are given in words; binding and its absence hold for the method and conditions named. Binding seen in cells or lysates may run through a third protein. Binding can be weak; no strength is given. Where a sequence is shown, tags or fusion partners need not be part of it.
How the values were obtained:
[1] = target: T1, Recombinant human kallistatin with a his-tag (human) (UniProt P29622); assay: co-IP; HUVECs treated with kallistatin for 4 h; cell lysates precipitated with rabbit anti-kallistatin antibody (control rabbit immunoglobulin) and protein A beads, 4°C overnight; immunoblot; only the target purified
T1 sequence: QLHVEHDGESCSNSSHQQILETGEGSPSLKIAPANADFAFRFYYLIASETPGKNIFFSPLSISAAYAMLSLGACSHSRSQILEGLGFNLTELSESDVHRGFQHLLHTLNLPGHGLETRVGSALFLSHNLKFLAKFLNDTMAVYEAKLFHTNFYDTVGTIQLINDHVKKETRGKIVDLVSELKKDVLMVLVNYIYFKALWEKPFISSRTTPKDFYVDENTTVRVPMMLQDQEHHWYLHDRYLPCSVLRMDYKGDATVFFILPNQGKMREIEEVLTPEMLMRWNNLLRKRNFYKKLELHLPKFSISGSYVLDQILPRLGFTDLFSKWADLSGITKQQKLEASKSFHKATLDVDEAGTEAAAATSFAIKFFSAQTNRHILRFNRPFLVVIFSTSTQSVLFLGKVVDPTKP

Amino acid sequences for entries named in this document (tags omitted). A change or cut given only in a name is not applied to a line headed by its entry.
UniProt P08253: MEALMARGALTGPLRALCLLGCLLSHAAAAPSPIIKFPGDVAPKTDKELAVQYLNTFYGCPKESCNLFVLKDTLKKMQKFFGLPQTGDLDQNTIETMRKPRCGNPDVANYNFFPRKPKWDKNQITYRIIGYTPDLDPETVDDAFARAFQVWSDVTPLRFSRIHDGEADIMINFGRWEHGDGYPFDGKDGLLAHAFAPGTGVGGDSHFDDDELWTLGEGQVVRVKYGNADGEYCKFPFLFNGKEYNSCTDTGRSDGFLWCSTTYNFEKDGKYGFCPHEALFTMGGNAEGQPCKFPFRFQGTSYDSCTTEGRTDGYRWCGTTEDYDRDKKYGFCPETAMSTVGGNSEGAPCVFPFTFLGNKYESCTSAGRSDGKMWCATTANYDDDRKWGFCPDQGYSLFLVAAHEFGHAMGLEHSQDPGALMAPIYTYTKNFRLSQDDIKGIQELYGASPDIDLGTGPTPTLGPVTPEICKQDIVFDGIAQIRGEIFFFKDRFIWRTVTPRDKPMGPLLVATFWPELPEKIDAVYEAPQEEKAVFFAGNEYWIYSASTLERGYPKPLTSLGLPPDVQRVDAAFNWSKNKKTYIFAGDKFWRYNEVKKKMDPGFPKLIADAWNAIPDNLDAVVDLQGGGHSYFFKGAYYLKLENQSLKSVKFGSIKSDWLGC

[2] = target: T1, Recombinant human kallistatin with a his-tag (human); assay: pull-down; his-tagged kallistatin (3 mg) on Ni-NTA affinity beads, incubated with HUVEC membrane proteins (10 mg) for 16 h at 4°C; washed with PBS; eluted fractions on SDS-PAGE; bands identified by MALDI-TOF peptide mass fingerprinting and confirmed by immunoblot; Ni-NTA beads without kallistatin as control; only the target purified

binding [1]: binds | binding [2]: binds
Substance: MMP2 (from UniProt P08253) (enzyme)

— article PMC5788634
